Data published in patent publication US9410958B2, “Alkyne-activated fluorogenic azide compounds and methods of use thereof” (The Regents of the University of California, priority 2014, dated 2016).

Test: Monitoring absorbance/fluorescence during copper-catalyzed click reaction with alkyne
Assay type: physicochemical

COc1cc(OC)c(C2=C3C=CC(=[N+](C)C)C=C3[Si](C)(C)c3cc(N(C)C)ccc32)cc1N=[N+]=[N-] [Compound 9-N3, 3-Azido-4,6-dimethoxy-Si-rhodamine]
change of absorption under click reaction conditions: did not change significantly
